Holding throughout (assay): glycan array binding signal (z-score within array); higher = stronger binding
Settings in all cases: glycan notation: IUPAC condensed, linker removed

Test [1] concerns the target Gal(b1-4)GlcNAc(b1-3)Gal(b1-4)GlcNAc(b1-3)Gal(b1-4)GlcNAc(b1-3)Gal(b1-4)GlcNAc(b1-2)Man(a1-3)[Gal(b1-4)GlcNAc(b1-3)Gal(b1-4)GlcNAc(b1-3)Gal(b1-4)GlcNAc(b1-3)Gal(b1-4)GlcNAc(b1-2)Man(a1-6)]Man(b1-4)GlcNAc(b1-4)[Fuc(a1-6)]GlcNAc. The method, boiled down: (§1)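 Arrays were curated from the Consortium for Functional Glycomics database, 3228 in total, and kept only where the protein sequence was available. Binding is expressed as a within-array Z-score. This score was averaged across arrays of the same protein sequence at different concentrations or buffers and across linkers, and negative values can be read as non-binding.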

Test [2] has as its target Gal(b1-4)GlcNAc(b1-3)Gal(b1-4)GlcNAc(b1-3)Gal(b1-4)GlcNAc(b1-3)Gal(b1-4)GlcNAc(b1-2)[Gal(b1-4)GlcNAc(b1-3)Gal(b1-4)GlcNAc(b1-3)Gal(b1-4)GlcNAc(b1-3)Gal(b1-4)GlcNAc(b1-6)]Man(a1-6)[Gal(b1-4)GlcNAc(b1-3)Gal(b1-4)GlcNAc(b1-3)Gal(b1-4)GlcNAc(b1-3)Gal(b1-4)GlcNAc(b1-2)Man(a1-3)]Man(b1-4)GlcNAc(b1-4)[Fuc(a1-6)]GlcNAc. The essentials:
as §1

For test [3], the target named is Gal(b1-4)GlcNAc(b1-3)Gal(b1-4)GlcNAc(b1-3)Gal(b1-4)GlcNAc(b1-3)Gal(b1-4)GlcNAc(b1-3)Gal(b1-4)GlcNAc(b1-2)Man(a1-3)[Gal(b1-4)GlcNAc(b1-3)Gal(b1-4)GlcNAc(b1-3)Gal(b1-4)GlcNAc(b1-3)Gal(b1-4)GlcNAc(b1-3)Gal(b1-4)GlcNAc(b1-2)Man(a1-6)]Man(b1-4)GlcNAc(b1-4)GlcNAc. The method, boiled down:
as §1

Test [4] deals with Gal(b1-4)GlcNAc(b1-3)Gal(b1-4)GlcNAc(b1-3)Gal(b1-4)GlcNAc(b1-3)Gal(b1-4)GlcNAc(b1-3)Gal(b1-4)GlcNAc(b1-2)Man(a1-3)[Gal(b1-4)GlcNAc(b1-3)Gal(b1-4)GlcNAc(b1-3)Gal(b1-4)GlcNAc(b1-3)Gal(b1-4)GlcNAc(b1-3)Gal(b1-4)GlcNAc(b1-2)Man(a1-6)]Man(b1-4)GlcNAc(b1-4)[Fuc(a1-6)]GlcNAc. The essentials:
as §1

In test [5] the target is Gal(b1-4)GlcNAc(b1-3)Gal(b1-4)GlcNAc(b1-3)Gal(b1-4)GlcNAc(b1-3)Gal(b1-4)GlcNAc(b1-3)Gal(b1-4)GlcNAc(b1-2)[Gal(b1-4)GlcNAc(b1-3)Gal(b1-4)GlcNAc(b1-3)Gal(b1-4)GlcNAc(b1-3)Gal(b1-4)GlcNAc(b1-3)Gal(b1-4)GlcNAc(b1-6)]Man(a1-6)[Gal(b1-4)GlcNAc(b1-3)Gal(b1-4)GlcNAc(b1-3)Gal(b1-4)GlcNAc(b1-3)Gal(b1-4)GlcNAc(b1-3)Gal(b1-4)GlcNAc(b1-2)Man(a1-3)]Man(b1-4)GlcNAc(b1-4)[Fuc(a1-6)]GlcNAc. The method, boiled down:
as §1

The target of test [6] is Gal(b1-4)GlcNAc(b1-3)Gal(b1-4)GlcNAc(b1-3)Gal(b1-4)GlcNAc(b1-3)Gal(b1-4)GlcNAc(b1-3)Gal(b1-4)GlcNAc(b1-3)Gal(b1-4)GlcNAc(b1-2)Man(a1-3)[Gal(b1-4)GlcNAc(b1-3)Gal(b1-4)GlcNAc(b1-3)Gal(b1-4)GlcNAc(b1-3)Gal(b1-4)GlcNAc(b1-3)Gal(b1-4)GlcNAc(b1-3)Gal(b1-4)GlcNAc(b1-2)Man(a1-6)]Man(b1-4)GlcNAc(b1-4)GlcNAc. The method, boiled down:
as §1

The target of test [7] is Gal(b1-4)GlcNAc(b1-3)Gal(b1-4)GlcNAc(b1-3)GalNAc. The method, boiled down:
as §1

The target of test [8] is Gal(b1-4)GlcNAc(b1-3)Gal(b1-4)GlcNAc(b1-3)[Gal(b1-4)GlcNAc(b1-3)Gal(b1-4)GlcNAc(b1-6)]GalNAc. The method, boiled down:
as §1

In test [9] the target is Gal(b1-4)GlcNAc(b1-3)Gal(b1-4)GlcNAc(b1-6)[Gal(b1-3)]GalNAc. The essentials: as §1
Test [10] deals with Gal(b1-4)GlcNAc(b1-3)Gal(b1-4)[Fuc(a1-3)]GlcNAc(b1-3)Gal(b1-4)[Fuc(a1-3)]GlcNAc. The essentials:
as §1

Test [11] concerns the target Gal(b1-4)GlcNAc(b1-3)GalNAc. The essentials: as §1
Test [12] concerns the target Gal(b1-4)GlcNAc(b1-3)[Fuc(a1-3)GlcNAc(b1-6)]Gal(b1-4)Glc. The method, boiled down:
as §1

Test [13] has as its target Gal(b1-4)GlcNAc(b1-3)[Gal(b1-4)GlcNAc(b1-6)]Gal(b1-4)GlcNAc. The method, boiled down:
as §1

Test [14] has as its target Gal(b1-4)GlcNAc(b1-3)[GlcNAc(b1-6)]Gal(b1-4)GlcNAc. The essentials:
as §1

Test [15] addresses Gal(b1-4)GlcNAc(b1-6)Gal(b1-4)GlcNAc. The essentials: as §1
Test [16] addresses Gal(b1-4)GlcNAc(b1-6)GalNAc. The method, boiled down: as §1
The target of test [17] is Gal(b1-4)GlcNAc(b1-6)[Gal(b1-3)]GalNAc. The essentials: as §1
The target of test [18] is Gal(b1-4)GlcNAc(b1-6)[Gal(b1-4)GlcNAc(b1-3)]GalNAc. The method, boiled down: as §1
The target in a further test is Gal(b1-4)GlcNAc6P. The method, boiled down:
as §1

The next test has as its target Gal(b1-6)Gal. The essentials: as §1
In the next test the target is Gal3S(b1-3)GalNAc. The method, boiled down: as §1
The target of another test is Gal3S(b1-3)GlcNAc. The method, boiled down:
as §1

In test [19] the target is Gal3S(b1-3)[Fuc(a1-4)]GlcNAc. The method, boiled down: as §1

The other results are listed elsewhere or left out.

B1: Clec18A (Homo sapiens) (protein)
chain: PFHTCDLRIDGDCFMVSSEADTYYRARMKCQRKGGVLAQIKRQKVQDILAFYLGRLETTNEVIDSDFETRNFWIGLTYKTAKDSFRWATGEHQAFTSFAFGQPDNHGFGNCVELQASAAFNWNDQRCKTRNRYICQ
For B1, the “glycan array binding signal (z-score)” value in test [1] was 1.66; in test [2], 1.23; in test [3] it was 0.263; in test [4] it was -0.062; in test [5], 1.58; in [6] it was 2.08. Further, the “glycan array binding signal (z-score)” value in [7] was -0.588; in test [8], -0.53; in test [9], 1.81; in test [10], 1.02; in test [11], 1.48; in [12], -0.131. Also, the “glycan array binding signal (z-score)” value in test [13] was 0.596; in test [14] it was -0.51; in test [15], -0.214; in test [16] it was 0.267; in test [17] it was -0.636; in [18], 1.8. Also, the “glycan array binding signal (z-score)” value is 0.093 with Gal(b1-4)GlcNAc6P; 3 with Gal(b1-6)Gal; -0.553 in the test with Gal3S(b1-3)GalNAc; -0.638 in the test with Gal3S(b1-3)GlcNAc; -0.41 in test [19].

(Values after the supplement of paper PMC8728848.)
